# Source: the supplement of paper PMC8728848
# Some of the results follow.
# B1: Clec39 (Caenorhabditis elegans) (protein)
# chain: MTSFYDNSSSSSKPVPLKTSRAQKIQILIFDNWKLILYGAISTLILVLAIMFSTLFFALPAANCDENSEPTKYYTTNAEITTTITTTNQKTTSTASSHLTTISSSATQIYSESSSSSTSQSTFTQSPPEISTTTIAPSDFSCQHGFTLVNNKCWKLVTSNQARPDADKICNGYGGATLFSIKSEQDNRAMIHFVKGQDIDFLWSGLLCSAGEPISCIWDIENGSTANYSNFADGFPNIVYGNCVYFITSGDEAGQWGNEQCGQVMNFVCELPATFQGKDGCKNNYEKSCYLRFDLNLTVPQAQNFCLEKCANLVSIHSANEVRFIMTIYDFIGEILIGALAPAQDFIYWLDGTPANYNNLKFFYNSTCVHMTVAPGMQNVGKWFTRFCTETGKFLCKRSIKNSCT
# What was measured:
# Experiment in all cases: glycan array binding signal (z-score within array); higher = stronger binding
# Settings in all cases: glycan notation: IUPAC condensed, linker removed
# [1] = target: Fuc(a1-2)Gal6S(b1-3)GlcNAc6S
# How it was run: (§1)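 Negative Z-scores can be read as non-binding. The Z-score is calculated within each array and then averaged across arrays of one protein sequence at different concentrations or buffers and across linkers. Arrays, 3228 in all, were curated from the Consortium for Functional Glycomics database and kept only where the protein sequence was available.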
# [2] = target: Fuc(a1-2)Gal6S(b1-4)Glc
# How it was run: as §1
# [3] = target: Fuc(a1-2)Gal6S(b1-4)Glc6S
# How it was run: as §1
# [4] = target: Fuc(a1-2)[Gal(a1-3)]Gal
# How it was run: as §1
# [5] = target: Fuc(a1-2)[Gal(a1-3)]Gal(b1-3)GalNAc
# How it was run: as §1
# [6] = target: Fuc(a1-2)[Gal(a1-3)]Gal(b1-3)GalNAc(b1-3)Gal(a1-4)Gal(b1-4)Glc
# How it was run: as §1
# [7] = target: Fuc(a1-2)[Gal(a1-3)]Gal(b1-3)GlcNAc
# How it was run: as §1
# [8] = target: Fuc(a1-2)[Gal(a1-3)]Gal(b1-3)GlcNAc(b1-2)Man(a1-3)[Fuc(a1-2)[Gal(a1-3)]Gal(b1-3)GlcNAc(b1-2)Man(a1-6)]Man(b1-4)GlcNAc(b1-4)GlcNAc
# How it was run: as §1
# [9] = target: Fuc(a1-2)[Gal(a1-3)]Gal(b1-3)GlcNAc(b1-2)Man(a1-3)[Fuc(a1-2)[Gal(a1-3)]Gal(b1-3)GlcNAc(b1-2)Man(a1-6)]Man(b1-4)GlcNAc(b1-4)[Fuc(a1-6)]GlcNAc
# How it was run: as §1
# [10] = target: Fuc(a1-2)[Gal(a1-3)]Gal(b1-3)GlcNAc(b1-3)GalNAc
# How it was run: as §1
# [11] = target: Fuc(a1-2)[Gal(a1-3)]Gal(b1-3)GlcNAc(b1-6)GalNAc
# How it was run: as §1
# [12] = target: Fuc(a1-2)[Gal(a1-3)]Gal(b1-4)Glc
# How it was run: as §1
# [13] = target: Fuc(a1-2)[Gal(a1-3)]Gal(b1-4)GlcNAc
# How it was run: as §1
# [14] = target: Fuc(a1-2)[Gal(a1-3)]Gal(b1-4)GlcNAc(b1-2)Man
# How it was run: as §1
# [15] = target: Fuc(a1-2)[Gal(a1-3)]Gal(b1-4)GlcNAc(b1-2)Man(a1-3)[Fuc(a1-2)[Gal(a1-3)]Gal(b1-4)GlcNAc(b1-2)Man(a1-6)]Man(b1-4)GlcNAc(b1-4)GlcNAc
# How it was run: as §1
# [16] = target: Fuc(a1-2)[Gal(a1-3)]Gal(b1-4)GlcNAc(b1-2)Man(a1-3)[Fuc(a1-2)[Gal(a1-3)]Gal(b1-4)GlcNAc(b1-2)Man(a1-6)]Man(b1-4)GlcNAc(b1-4)[Fuc(a1-6)]GlcNAc
# How it was run: as §1
# [17] = target: Fuc(a1-2)[Gal(a1-3)]Gal(b1-4)GlcNAc(b1-3)GalNAc
# How it was run: as §1
# [18] = target: Fuc(a1-2)[Gal(a1-3)]Gal(b1-4)GlcNAc(b1-3)[Fuc(a1-2)[Gal(a1-3)]Gal(b1-4)GlcNAc(b1-6)]GalNAc
# How it was run: as §1
# [19] = target: Fuc(a1-2)[Gal(a1-3)]Gal(b1-4)GlcNAc(b1-6)GalNAc
# How it was run: as §1
# [20] = target: Fuc(a1-2)[Gal(a1-3)]Gal(b1-4)[Fuc(a1-3)]Glc
# How it was run: as §1
# [21] = target: Fuc(a1-2)[Gal(a1-3)]Gal(b1-4)[Fuc(a1-3)]GlcNAc
# How it was run: as §1
# [22] = target: Fuc(a1-2)[Gal(a1-3)]Gal(b1-4)[Fuc(a1-3)]GlcNAc(b1-3)GalNAc
# How it was run: as §1
# [23] = target: Fuc(a1-2)[Gal(a1-4)]Gal(b1-4)GlcNAc
# How it was run: as §1
# [24] = target: Fuc(a1-2)[GalNAc(a1-3)]Gal
# How it was run: as §1
# [25] = target: Fuc(a1-2)[GalNAc(a1-3)]Gal(b1-3)GalNAc(a1-3)[Fuc(a1-2)]Gal(b1-4)GlcNAc
# How it was run: as §1
# [26] = target: Fuc(a1-2)[GalNAc(a1-3)]Gal(b1-3)GalNAc(b1-3)Gal(a1-4)Gal(b1-4)Glc
# How it was run: as §1
# [27] = target: Fuc(a1-2)[GalNAc(a1-3)]Gal(b1-3)GlcNAc
# How it was run: as §1
# [28] = target: Fuc(a1-2)[GalNAc(a1-3)]Gal(b1-3)GlcNAc(b1-2)Man(a1-3)[Fuc(a1-2)[GalNAc(a1-3)]Gal(b1-3)GlcNAc(b1-2)Man(a1-6)]Man(b1-4)GlcNAc(b1-4)GlcNAc
# How it was run: as §1
# [29] = target: Fuc(a1-2)[GalNAc(a1-3)]Gal(b1-3)GlcNAc(b1-2)Man(a1-3)[Fuc(a1-2)[GalNAc(a1-3)]Gal(b1-3)GlcNAc(b1-2)Man(a1-6)]Man(b1-4)GlcNAc(b1-4)[Fuc(a1-6)]GlcNAc
# How it was run: as §1
# [30] = target: Fuc(a1-2)[GalNAc(a1-3)]Gal(b1-3)GlcNAc(b1-3)GalNAc
# How it was run: as §1
# [31] = target: Fuc(a1-2)[GalNAc(a1-3)]Gal(b1-3)GlcNAc(b1-6)GalNAc
# How it was run: as §1
# [32] = target: Fuc(a1-2)[GalNAc(a1-3)]Gal(b1-4)Glc
# How it was run: as §1
# [33] = target: Fuc(a1-2)[GalNAc(a1-3)]Gal(b1-4)GlcNAc
# How it was run: as §1
# [34] = target: Fuc(a1-2)[GalNAc(a1-3)]Gal(b1-4)GlcNAc(b1-2)Man
# How it was run: as §1
# [35] = target: Fuc(a1-2)[GalNAc(a1-3)]Gal(b1-4)GlcNAc(b1-2)Man(a1-3)[Fuc(a1-2)[GalNAc(a1-3)]Gal(b1-4)GlcNAc(b1-2)Man(a1-6)]Man(b1-4)GlcNAc(b1-4)GlcNAc
# How it was run: as §1
# [36] = target: Fuc(a1-2)[GalNAc(a1-3)]Gal(b1-4)GlcNAc(b1-2)Man(a1-3)[Fuc(a1-2)[GalNAc(a1-3)]Gal(b1-4)GlcNAc(b1-2)Man(a1-6)]Man(b1-4)GlcNAc(b1-4)[Fuc(a1-6)]GlcNAc
# How it was run: as §1
# [37] = target: Fuc(a1-2)[GalNAc(a1-3)]Gal(b1-4)GlcNAc(b1-3)Gal(b1-4)GlcNAc
# How it was run: as §1
# [38] = target: Fuc(a1-2)[GalNAc(a1-3)]Gal(b1-4)GlcNAc(b1-3)Gal(b1-4)GlcNAc(b1-3)Gal(b1-4)GlcNAc
# How it was run: as §1
# [39] = target: Fuc(a1-2)[GalNAc(a1-3)]Gal(b1-4)GlcNAc(b1-3)GalNAc
# How it was run: as §1
# [40] = target: Fuc(a1-2)[GalNAc(a1-3)]Gal(b1-4)GlcNAc(b1-3)[Fuc(a1-2)[GalNAc(a1-3)]Gal(b1-4)GlcNAc(b1-6)]GalNAc
# How it was run: as §1
# [41] = target: Fuc(a1-2)[GalNAc(a1-3)]Gal(b1-4)GlcNAc(b1-6)GalNAc
# How it was run: as §1
# [42] = target: Fuc(a1-2)[GalNAc(a1-3)]Gal(b1-4)[Fuc(a1-3)]GlcNAc
# How it was run: as §1
# [43] = target: Fuc(a1-2)[GalNAc(a1-3)]Gal(b1-4)[Fuc(a1-3)]GlcNAc(b1-3)GalNAc
# How it was run: as §1
# [44] = target: Fuc(a1-2)[GalNAc(a1-4)]Gal(b1-4)GlcNAc
# How it was run: as §1
# [45] = target: Fuc(a1-2)[GalNAc(b1-3)]Gal
# How it was run: as §1
binder,measurement,setting,value
B1,glycan array binding signal (z-score),[1],0.002
same,glycan array binding signal (z-score),[2],-0.179
same,glycan array binding signal (z-score),[3],-0.853
same,glycan array binding signal (z-score),[4],0.045
same,glycan array binding signal (z-score),[5],0.59
same,glycan array binding signal (z-score),[6],-0.883
same,glycan array binding signal (z-score),[7],-0.274
same,glycan array binding signal (z-score),[8],0.435
same,glycan array binding signal (z-score),[9],-0.229
same,glycan array binding signal (z-score),[10],-0.194
same,glycan array binding signal (z-score),[11],-0.416
same,glycan array binding signal (z-score),[12],-0.432
same,glycan array binding signal (z-score),[13],0.159
same,glycan array binding signal (z-score),[14],-0.697
same,glycan array binding signal (z-score),[15],3.03
same,glycan array binding signal (z-score),[16],0.141
same,glycan array binding signal (z-score),[17],0.145
same,glycan array binding signal (z-score),[18],1.4
same,glycan array binding signal (z-score),[19],0.316
same,glycan array binding signal (z-score),[20],-1.08
same,glycan array binding signal (z-score),[21],0.454
same,glycan array binding signal (z-score),[22],1.72
same,glycan array binding signal (z-score),[23],-0.356
same,glycan array binding signal (z-score),[24],-0.52
same,glycan array binding signal (z-score),[25],0.087
same,glycan array binding signal (z-score),[26],-0.716
same,glycan array binding signal (z-score),[27],0.877
same,glycan array binding signal (z-score),[28],0.264
same,glycan array binding signal (z-score),[29],0.039
same,glycan array binding signal (z-score),[30],0.887
same,glycan array binding signal (z-score),[31],-1.5
same,glycan array binding signal (z-score),[32],2.18
same,glycan array binding signal (z-score),[33],-0.203
same,glycan array binding signal (z-score),[34],-1.14
same,glycan array binding signal (z-score),[35],1.1
same,glycan array binding signal (z-score),[36],0.878
same,glycan array binding signal (z-score),[37],-0.024
same,glycan array binding signal (z-score),[38],-0.054
same,glycan array binding signal (z-score),[39],-0.527
same,glycan array binding signal (z-score),[40],-0.534
same,glycan array binding signal (z-score),[41],-0.922
same,glycan array binding signal (z-score),[42],-0.447
same,glycan array binding signal (z-score),[43],0.3
same,glycan array binding signal (z-score),[44],1.18
same,glycan array binding signal (z-score),[45],0.824

# Some of the entries so far, with bars between the fields:
binder | measurement | setting | value
B1 | glycan array binding signal (z-score) | [2] | -0.179
same | glycan array binding signal (z-score) | [4] | 0.045
same | glycan array binding signal (z-score) | [7] | -0.274
same | glycan array binding signal (z-score) | [11] | -0.416
same | glycan array binding signal (z-score) | [13] | 0.159
same | glycan array binding signal (z-score) | [15] | 3.03
same | glycan array binding signal (z-score) | [26] | -0.716
same | glycan array binding signal (z-score) | [31] | -1.5
same | glycan array binding signal (z-score) | [35] | 1.1
